Reference: doi:10.1101/719815 (bioRxiv, 2019)
Where two headings read alike, the source gives them in different places. These are yes or no findings as the source states them, for the method shown. In cells and extracts the contact can be indirect. Some entries that bind do so weakly or less than the wild type.

What was measured:
Experiment in all cases: split reporter
[1] = target: T1, CDC24_(428-759)CRU (yeast) (UniProt P11433)
T1 sequence: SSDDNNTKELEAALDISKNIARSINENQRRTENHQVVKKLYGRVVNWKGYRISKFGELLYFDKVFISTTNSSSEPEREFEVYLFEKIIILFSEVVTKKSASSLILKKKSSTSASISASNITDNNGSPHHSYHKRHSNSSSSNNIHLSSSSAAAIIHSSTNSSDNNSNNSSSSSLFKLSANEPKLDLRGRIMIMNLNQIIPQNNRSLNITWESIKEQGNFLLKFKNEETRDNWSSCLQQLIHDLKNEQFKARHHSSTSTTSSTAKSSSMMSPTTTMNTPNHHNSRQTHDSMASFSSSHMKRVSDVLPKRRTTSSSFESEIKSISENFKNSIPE

[2] = target: T2, Cdc24 extended by the Cub-RUra3 module (Cdc24CRU) (yeast) (UniProt P11433)
T2 sequence: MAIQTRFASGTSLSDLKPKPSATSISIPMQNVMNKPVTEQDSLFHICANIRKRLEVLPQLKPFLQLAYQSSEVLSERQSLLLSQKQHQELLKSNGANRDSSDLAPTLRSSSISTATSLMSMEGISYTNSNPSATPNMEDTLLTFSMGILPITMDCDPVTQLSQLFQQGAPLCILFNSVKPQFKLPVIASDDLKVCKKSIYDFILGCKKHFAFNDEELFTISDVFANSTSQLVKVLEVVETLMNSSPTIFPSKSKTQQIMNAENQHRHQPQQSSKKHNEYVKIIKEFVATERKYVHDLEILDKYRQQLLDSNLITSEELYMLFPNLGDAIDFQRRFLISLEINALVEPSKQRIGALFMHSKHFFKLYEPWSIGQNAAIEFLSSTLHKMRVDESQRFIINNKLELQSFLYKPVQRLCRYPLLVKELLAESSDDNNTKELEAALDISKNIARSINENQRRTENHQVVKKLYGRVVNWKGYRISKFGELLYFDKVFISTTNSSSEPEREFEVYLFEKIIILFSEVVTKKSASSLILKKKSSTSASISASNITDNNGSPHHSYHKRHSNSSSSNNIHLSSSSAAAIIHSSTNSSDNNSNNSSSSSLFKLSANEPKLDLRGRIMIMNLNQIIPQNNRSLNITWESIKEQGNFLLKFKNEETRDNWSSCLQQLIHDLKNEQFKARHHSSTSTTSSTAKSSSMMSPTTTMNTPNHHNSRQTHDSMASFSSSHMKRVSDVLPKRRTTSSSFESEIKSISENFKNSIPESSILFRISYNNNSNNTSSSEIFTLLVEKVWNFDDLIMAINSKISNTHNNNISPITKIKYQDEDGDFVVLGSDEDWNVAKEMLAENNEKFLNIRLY

[3] = target: T3, Cdc24_(755-854)CRU (yeast) (UniProt P11433)
T3 sequence: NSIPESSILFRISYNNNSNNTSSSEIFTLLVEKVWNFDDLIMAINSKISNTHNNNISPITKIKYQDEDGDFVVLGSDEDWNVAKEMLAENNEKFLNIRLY

[4] = target: T2, Cdc24 extended by the Cub-RUra3 module (Cdc24CRU) (yeast); remark: listed apart in the source

binding [1]: no binding
binding [2]: binds
binding [3]: no binding
binding [4]: binds
B1: Nub-Cdc11 (protein, UniProt P32458 1-415)
chain: MSGIIDASSALRKRKHLKRGITFTVMIVGQSGSGRSTFINTLCGQQVVDTSTTILLPTDTSTEIDLQLREETVELEDDEGVKIQLNIIDTPGFGDSLDNSPSFEIISDYIRHQYDEILLEESRVRRNPRFKDGRVHCCLYLINPTGHGLKEIDVEFIRQLGSLVNIIPVISKSDSLTRDELKLNKKLIMEDIDRWNLPIYNFPFDEDEISDEDYETNMYLRTLLPFAIIGSNEVYEMGGDVGTIRGRKYPWGILDVEDSSISDFVILRNALLISHLHDLKNYTHEILYERYRTEALSGESVAAESIRPNLTKLNGSSSSSTTTRRNTNPFKQSNNINNDVLNPASDMHGQSTGENNETYMTREEQIRLEEERLKAFEERVQQELLLKRQELLQREKELREIEARLEKEAKIKQEE
